Values quoted from earlier work in patent US8609661B2, “Pyrimido-pyrrolo-quinoxalinedione inhibitors of cystic fibrosis transmembrane conductance regulator protein and uses therefor” (The Regents of the University of California, priority 2009, dated 2013).
Some entries share one result that the patent states for a list of compounds.

Amino acid sequences for entries named in this document (tags omitted).
UniProt P13569, whole entry: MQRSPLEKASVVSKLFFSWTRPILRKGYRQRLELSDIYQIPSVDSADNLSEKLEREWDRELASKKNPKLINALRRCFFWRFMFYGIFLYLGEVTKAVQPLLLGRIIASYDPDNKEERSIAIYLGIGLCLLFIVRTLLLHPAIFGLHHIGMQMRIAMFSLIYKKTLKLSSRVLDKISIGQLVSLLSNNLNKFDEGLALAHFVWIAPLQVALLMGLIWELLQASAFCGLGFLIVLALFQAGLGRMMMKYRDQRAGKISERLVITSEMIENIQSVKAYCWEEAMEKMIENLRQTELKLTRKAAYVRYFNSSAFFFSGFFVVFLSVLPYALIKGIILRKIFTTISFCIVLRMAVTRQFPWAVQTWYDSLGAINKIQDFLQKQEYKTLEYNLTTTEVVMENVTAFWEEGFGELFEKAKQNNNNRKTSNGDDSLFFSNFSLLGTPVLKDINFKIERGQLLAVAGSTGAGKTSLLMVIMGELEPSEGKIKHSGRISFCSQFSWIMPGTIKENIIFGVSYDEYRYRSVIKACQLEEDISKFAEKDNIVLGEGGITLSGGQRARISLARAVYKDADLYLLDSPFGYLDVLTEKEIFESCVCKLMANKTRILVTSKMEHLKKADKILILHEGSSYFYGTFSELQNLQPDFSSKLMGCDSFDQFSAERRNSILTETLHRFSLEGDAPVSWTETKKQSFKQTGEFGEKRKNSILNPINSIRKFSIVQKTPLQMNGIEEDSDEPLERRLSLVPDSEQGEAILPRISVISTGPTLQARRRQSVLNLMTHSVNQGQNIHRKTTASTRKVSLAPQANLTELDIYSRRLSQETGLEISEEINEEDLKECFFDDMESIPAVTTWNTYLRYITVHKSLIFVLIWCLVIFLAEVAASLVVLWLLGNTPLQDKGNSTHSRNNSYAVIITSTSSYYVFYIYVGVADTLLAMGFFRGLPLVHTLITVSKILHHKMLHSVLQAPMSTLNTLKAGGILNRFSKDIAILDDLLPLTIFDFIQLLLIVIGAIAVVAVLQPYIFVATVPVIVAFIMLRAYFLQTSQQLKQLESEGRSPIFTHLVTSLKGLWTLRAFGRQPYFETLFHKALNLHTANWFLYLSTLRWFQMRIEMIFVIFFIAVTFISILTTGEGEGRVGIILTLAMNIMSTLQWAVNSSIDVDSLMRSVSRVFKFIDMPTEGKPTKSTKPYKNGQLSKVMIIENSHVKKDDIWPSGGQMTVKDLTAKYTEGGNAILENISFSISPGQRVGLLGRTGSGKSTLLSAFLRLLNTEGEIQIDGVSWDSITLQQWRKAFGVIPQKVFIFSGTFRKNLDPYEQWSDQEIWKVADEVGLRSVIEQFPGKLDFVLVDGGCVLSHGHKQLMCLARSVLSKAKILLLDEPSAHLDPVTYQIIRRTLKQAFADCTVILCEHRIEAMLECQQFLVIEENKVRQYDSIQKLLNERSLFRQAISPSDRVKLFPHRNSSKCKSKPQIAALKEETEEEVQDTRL

Molecular target: CFTR (Homo sapiens, UniProt P13569)
Design: endogenous in cells; host or cells: T84 human intestinal epithelial cells; primary human bronchial epithelial cells
Conditions: non-permeabilized T84 and bronchial epithelial cells; literature; read-out: IC50 for CFTR inhibition, previously observed; cited from earlier work

In the case of `O=C(CNc1ccc2ccccc2c1)N/N=C/c1cc(Br)c(O)c(Br)c1O` [GlyH-101], the IC50 is listed as 3 to 5 µM.
